Test results as given in US9849489B2, “Passive sampling devices” (priority 2015, dated 2017).

Assay: thermal desorption of compounds off silicone wristbands compared to a standard injection
Conditions: 200° C., 50 mL/min nitrogen

Molecule	percent of compound desorbed off wristband surface relative to standard injection (100%) [%]
Clc1ccccc1Cl [Benzene, 1,2-dichloro-]	90
CCCc1ccccc1 [Benzene, propyl-]	113
CCCCc1ccccc1 [Benzene, butyl-]	98
Brc1ccccc1 [Benzene, bromo-]	91
Clc1ccc(Cl)cc1 [Benzene, 1,4-dichloro-]	94
Cc1ccccc1Cl [Benzene, 1-chloro-2-methyl-]	91
c1ccc2ccccc2c1 [Naphthalene]	104
CCc1ccccc1 [Ethylbenzene]	74
m and p-Xylene	74
C=Cc1ccccc1 [Styrene]	75
CCC(C)c1ccccc1 (stereo not drawn) [Benzene, (1-methylpropyl)-]	88
Cc1ccccc1C [o xylene]	73
CC(C)c1ccccc1 [Benzene, (1-methylethyl)-]	78
Clc1ccc(Cl)c(Cl)c1 [Benzene, 1,2,4-trichloro-]	188
c1ccccc1 [Benzene]	24
Cc1cccc(C(C)C)c1 [Benzene, 1-methyl-3-(1-methylethyl)-]	92
Clc1cccc(Cl)c1Cl [Benzene, 1,2,3-trichloro-]	88
Clc1ccccc1 [Benzene, chloro-]	70
Cc1ccc(C)c(C)c1 [Benzene, 1,2,4-trimethyl-]	94
Clc1cccc(Cl)c1 [Benzene, 1,3-dichloro]	94
Cc1ccc(Cl)cc1 [Benzene, 1-chloro-4-methyl-]	90
